Assay results taken from the supplement of paper PMC10849652.
The list shows a part of the results.

By UniProt entry, the sequences of proteins in these tests, tags left out. Where a name states a change or a piece, a line headed by the entry shows the natural chain unless it says otherwise.
UniProt Q9NXR1: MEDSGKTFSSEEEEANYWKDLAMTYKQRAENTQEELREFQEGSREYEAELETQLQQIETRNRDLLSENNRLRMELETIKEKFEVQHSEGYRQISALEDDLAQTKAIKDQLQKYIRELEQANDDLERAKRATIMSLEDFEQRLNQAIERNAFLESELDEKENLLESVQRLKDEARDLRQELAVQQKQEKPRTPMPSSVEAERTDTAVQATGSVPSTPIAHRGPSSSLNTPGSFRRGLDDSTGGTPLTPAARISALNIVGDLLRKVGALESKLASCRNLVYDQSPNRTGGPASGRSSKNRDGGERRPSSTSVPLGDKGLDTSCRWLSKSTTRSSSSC
UniProt Q13564: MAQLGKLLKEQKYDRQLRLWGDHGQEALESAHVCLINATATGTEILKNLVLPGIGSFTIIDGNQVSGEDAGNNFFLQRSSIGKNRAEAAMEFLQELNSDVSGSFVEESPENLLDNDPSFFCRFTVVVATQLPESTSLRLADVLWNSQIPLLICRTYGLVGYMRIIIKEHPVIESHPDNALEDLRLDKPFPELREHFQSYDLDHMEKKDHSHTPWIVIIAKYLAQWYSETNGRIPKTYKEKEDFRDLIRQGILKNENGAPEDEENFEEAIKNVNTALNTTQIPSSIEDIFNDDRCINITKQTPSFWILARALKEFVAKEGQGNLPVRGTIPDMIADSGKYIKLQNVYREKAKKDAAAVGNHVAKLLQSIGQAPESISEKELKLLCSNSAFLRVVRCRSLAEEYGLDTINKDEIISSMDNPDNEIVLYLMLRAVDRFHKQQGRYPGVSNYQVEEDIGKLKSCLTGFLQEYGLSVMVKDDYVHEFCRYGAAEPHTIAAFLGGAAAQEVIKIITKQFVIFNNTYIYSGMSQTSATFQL
UniProt O43920, whole entry, looked up: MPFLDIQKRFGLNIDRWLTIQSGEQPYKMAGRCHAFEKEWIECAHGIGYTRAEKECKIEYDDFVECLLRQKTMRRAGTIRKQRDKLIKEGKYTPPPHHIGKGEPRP
UniProt O43676, whole entry, looked up: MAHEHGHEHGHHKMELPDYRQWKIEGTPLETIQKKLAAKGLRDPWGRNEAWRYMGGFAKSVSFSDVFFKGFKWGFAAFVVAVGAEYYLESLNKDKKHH
UniProt Q9UN36: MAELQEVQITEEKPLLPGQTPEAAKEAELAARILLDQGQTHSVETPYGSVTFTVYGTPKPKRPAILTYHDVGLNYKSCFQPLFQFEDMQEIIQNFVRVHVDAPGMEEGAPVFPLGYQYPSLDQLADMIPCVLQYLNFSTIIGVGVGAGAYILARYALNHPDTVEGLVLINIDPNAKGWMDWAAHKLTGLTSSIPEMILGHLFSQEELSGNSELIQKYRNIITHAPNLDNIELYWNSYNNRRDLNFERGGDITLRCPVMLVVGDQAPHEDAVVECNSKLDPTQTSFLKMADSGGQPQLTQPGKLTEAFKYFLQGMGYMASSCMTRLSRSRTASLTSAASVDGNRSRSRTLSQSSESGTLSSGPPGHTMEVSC
UniProt O75380, whole entry, looked up: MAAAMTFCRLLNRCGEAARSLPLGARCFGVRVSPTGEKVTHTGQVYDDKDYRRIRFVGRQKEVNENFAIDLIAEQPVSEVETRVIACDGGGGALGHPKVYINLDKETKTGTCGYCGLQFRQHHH
UniProt Q9P0J0, whole entry, looked up: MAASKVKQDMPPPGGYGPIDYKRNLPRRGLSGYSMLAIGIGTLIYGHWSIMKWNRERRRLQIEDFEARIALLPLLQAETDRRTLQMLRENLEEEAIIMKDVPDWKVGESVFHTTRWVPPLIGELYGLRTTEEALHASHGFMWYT
UniProt Q8N183: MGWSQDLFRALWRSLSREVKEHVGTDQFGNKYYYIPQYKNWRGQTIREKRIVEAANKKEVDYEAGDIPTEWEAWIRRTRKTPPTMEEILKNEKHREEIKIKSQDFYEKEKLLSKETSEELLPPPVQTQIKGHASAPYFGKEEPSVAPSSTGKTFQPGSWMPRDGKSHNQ
UniProt Q14CX7, whole entry, looked up: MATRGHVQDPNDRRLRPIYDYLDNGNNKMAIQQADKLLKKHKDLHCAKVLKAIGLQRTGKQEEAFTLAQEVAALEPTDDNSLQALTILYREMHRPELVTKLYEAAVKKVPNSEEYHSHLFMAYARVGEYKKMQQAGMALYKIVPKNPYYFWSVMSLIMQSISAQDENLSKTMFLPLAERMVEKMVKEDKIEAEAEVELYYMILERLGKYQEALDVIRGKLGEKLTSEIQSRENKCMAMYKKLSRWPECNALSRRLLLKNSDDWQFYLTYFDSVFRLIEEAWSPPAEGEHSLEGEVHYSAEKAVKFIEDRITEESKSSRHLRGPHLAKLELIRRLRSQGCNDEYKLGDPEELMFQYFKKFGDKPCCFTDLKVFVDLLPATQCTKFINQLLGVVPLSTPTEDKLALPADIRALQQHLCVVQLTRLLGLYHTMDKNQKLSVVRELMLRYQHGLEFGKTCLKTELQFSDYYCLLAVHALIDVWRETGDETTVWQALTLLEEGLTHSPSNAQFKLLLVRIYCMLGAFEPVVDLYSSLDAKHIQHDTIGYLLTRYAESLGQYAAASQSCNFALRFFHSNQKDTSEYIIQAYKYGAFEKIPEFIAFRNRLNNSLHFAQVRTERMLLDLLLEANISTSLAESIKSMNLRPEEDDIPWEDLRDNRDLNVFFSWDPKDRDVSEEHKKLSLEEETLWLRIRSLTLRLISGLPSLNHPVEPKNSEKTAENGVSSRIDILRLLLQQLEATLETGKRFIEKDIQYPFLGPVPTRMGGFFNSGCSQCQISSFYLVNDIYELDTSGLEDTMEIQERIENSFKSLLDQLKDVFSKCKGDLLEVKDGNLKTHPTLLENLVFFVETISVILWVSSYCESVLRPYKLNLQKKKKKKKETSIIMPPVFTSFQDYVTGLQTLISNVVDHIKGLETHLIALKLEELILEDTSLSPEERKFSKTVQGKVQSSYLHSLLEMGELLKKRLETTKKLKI
UniProt Q6N069: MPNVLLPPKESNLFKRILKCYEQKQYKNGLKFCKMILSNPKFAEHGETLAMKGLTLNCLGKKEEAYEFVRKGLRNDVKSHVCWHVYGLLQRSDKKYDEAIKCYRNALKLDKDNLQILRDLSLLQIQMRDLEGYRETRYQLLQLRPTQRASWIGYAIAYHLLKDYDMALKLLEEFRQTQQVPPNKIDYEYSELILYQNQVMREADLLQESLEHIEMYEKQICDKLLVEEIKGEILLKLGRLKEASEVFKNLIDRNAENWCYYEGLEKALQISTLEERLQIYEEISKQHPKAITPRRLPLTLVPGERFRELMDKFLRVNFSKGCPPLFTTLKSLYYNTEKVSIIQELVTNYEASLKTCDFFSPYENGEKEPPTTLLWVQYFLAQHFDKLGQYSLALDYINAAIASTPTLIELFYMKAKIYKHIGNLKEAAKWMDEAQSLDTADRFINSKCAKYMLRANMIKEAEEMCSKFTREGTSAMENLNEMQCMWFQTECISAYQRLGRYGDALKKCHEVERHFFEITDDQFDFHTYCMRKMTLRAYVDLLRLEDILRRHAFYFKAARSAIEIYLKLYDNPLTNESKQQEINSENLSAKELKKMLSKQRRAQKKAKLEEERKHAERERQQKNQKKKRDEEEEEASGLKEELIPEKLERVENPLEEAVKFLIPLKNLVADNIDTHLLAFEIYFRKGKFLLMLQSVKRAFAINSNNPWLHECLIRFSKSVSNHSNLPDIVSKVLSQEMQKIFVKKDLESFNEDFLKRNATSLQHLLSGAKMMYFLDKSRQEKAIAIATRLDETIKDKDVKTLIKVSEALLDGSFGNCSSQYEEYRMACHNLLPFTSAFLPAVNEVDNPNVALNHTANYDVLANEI
UniProt Q4G0N4: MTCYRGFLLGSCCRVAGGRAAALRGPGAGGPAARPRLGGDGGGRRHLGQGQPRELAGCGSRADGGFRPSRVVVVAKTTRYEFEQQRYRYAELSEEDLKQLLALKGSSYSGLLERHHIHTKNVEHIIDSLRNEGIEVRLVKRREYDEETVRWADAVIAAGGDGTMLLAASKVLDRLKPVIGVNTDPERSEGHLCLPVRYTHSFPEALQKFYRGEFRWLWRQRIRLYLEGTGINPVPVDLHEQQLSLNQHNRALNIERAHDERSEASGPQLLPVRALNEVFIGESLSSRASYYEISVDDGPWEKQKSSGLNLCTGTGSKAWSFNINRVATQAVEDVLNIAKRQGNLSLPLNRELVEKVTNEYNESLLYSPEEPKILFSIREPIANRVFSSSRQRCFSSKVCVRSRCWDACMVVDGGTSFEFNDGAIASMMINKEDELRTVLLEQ
UniProt Q86XI2: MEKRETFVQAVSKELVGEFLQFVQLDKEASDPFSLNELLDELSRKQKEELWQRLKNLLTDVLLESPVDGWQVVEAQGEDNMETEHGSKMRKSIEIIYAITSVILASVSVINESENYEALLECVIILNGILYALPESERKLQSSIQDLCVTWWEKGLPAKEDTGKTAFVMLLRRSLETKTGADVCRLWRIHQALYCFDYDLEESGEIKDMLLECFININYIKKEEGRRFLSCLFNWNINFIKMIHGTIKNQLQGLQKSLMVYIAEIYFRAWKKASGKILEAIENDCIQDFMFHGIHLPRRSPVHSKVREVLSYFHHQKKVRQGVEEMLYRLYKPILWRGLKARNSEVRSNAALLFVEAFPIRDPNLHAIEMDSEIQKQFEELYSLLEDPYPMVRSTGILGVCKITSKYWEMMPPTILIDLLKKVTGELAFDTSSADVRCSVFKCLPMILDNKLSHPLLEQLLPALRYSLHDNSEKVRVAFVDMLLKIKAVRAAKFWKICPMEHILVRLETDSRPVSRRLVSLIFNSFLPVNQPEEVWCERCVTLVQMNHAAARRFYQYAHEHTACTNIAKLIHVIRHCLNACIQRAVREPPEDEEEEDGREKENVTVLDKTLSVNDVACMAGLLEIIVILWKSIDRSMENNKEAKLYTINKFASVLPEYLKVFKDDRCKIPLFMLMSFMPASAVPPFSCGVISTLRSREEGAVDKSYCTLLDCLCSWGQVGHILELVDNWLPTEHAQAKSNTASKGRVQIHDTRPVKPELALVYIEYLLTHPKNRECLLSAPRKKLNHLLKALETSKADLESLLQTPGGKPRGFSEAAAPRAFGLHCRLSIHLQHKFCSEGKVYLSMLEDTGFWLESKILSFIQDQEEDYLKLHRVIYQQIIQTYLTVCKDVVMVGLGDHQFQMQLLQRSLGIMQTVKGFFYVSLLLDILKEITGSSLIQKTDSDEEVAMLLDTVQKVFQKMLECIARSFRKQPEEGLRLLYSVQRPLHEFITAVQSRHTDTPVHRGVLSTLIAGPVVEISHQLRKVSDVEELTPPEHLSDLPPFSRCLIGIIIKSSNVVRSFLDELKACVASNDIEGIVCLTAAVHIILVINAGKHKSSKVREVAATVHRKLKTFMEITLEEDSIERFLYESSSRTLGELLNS
UniProt O95299, whole entry, looked up: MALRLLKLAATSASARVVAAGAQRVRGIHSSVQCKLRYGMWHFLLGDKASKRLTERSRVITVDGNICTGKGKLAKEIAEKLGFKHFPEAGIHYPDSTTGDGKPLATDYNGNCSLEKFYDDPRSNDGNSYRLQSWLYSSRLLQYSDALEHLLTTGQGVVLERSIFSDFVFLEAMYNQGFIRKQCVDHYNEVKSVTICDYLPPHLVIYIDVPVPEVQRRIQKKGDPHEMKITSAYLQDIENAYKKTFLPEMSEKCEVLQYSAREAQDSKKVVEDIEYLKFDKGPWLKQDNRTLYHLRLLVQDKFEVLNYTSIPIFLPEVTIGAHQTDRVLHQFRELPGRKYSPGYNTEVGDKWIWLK
UniProt O75489, whole entry, looked up: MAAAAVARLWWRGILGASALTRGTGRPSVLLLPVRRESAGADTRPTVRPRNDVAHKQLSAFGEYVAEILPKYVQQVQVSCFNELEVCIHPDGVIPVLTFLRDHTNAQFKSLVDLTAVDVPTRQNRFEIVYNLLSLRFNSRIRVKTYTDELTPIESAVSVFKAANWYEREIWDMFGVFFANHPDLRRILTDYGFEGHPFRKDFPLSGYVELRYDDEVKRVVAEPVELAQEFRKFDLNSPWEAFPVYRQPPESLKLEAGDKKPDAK
UniProt Q6XQN6: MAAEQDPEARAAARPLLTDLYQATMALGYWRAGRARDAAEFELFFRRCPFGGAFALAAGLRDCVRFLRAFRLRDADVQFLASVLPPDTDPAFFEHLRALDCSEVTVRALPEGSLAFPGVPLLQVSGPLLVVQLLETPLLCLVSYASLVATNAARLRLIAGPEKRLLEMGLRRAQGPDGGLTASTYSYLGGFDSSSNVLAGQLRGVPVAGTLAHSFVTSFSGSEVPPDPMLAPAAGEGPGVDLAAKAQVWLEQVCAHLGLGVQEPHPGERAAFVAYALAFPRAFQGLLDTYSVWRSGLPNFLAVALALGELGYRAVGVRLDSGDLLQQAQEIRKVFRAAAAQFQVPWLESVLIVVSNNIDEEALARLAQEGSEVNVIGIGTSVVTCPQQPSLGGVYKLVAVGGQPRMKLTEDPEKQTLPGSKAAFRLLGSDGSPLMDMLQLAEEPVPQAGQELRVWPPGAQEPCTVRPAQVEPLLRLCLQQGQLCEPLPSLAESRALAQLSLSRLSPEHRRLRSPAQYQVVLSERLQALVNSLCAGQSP

Legend:
Experiment in all cases: log2 fold change, soluble protein after heating vs DMSO (PISA); higher = thermal stabilisation; K562 cells, 10 uM, 30 min; active = over 0.2 and 3.5 SD of the protein, either way, in both replicates (recomputed)
[1] = compound: CC[C@@H]1C(=O)N(C)c2cnc(Nc3ccc(C(=O)NC4CCN(C)CC4)cc3OC)nc2N1C1CCCC1
Procedure, shortened: (§1)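 K562 cells at 2×10^6 cells/mL were exposed to 10 μM compound for 30 min, then aliquots were heated for 3 min across 48°C-58°C, pooled, and extracted in PBS containing 0.5% NP-40 at 4°C. The supernatant after 21,000xg for 90 min was taken as soluble protein and measured by TMTpro 16plex LC-MS/MS with channel sums equalised. Thermal stability is reported relative to control samples, with values from duplicates. Fold changes are given on a log2 scale.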

volasertib = compound: CC[C@@H]1C(=O)N(C)c2cnc(Nc3ccc(C(=O)N[C@H]4CC[C@H](N5CCN(CC6CC6)CC5)CC4)cc3OC)nc2N1C(C)C [volasertib]
Procedure, shortened: as §1

[2] = compound: CC[C@H](C)N1C=C(C2=C(C=C(C=C21)C3=CN=C(C=C3)N4CCNCC4)C(=O)NCC5=C(C=C(NC5=O)C)C)C
Procedure, shortened: as §1

epoxomicin = compound: CC[C@H](C)[C@@H](C(=O)N[C@@H]([C@@H](C)O)C(=O)N[C@@H](CC(C)C)C(=O)[C@]1(CO1)C)NC(=O)[C@H]([C@@H](C)CC)N(C)C(=O)C [epoxomicin]
Procedure, shortened: as §1

[3] = compound: CCn1c(C(=O)N(C2CC2)C2CC2)cc2c3c(ncn3C)c(Nc3cc(C)n(C)n3)nc21
Procedure, shortened: as §1

[4] = compound: CCn1cc(-c2ccnc3[nH]c(-c4cccc(CN(C)C)c4)cc23)c(-c2ccc(NC(=O)N(C)C)cc2)n1
Procedure, shortened: as §1

[5] = compound: CN(C)CC(=O)Nc1ccc2[nH]c(=O)c3ccccc3c2c1
Procedure, shortened: as §1

rosiglitazone = compound: CN(CCOC1=CC=C(C=C1)C[C@H]2C(=O)NC(=O)S2)C3=CC=CC=N3 (racemic) [rosiglitazone]
Procedure, shortened: as §1

[6] = compound: CN1C2=C(C3=C1C(=O)N(N=C3)CC4=CC(=CC=C4)N)SC(=C2)S(=O)C
Procedure, shortened: as §1

[7] = compound: CN1CCC(CNc2ccc3ncc(-c4cccc(OC(F)(F)F)c4)n3n2)CC1
Procedure, shortened: as §1

saracatinib = compound: CN1CCN(CCOc2cc(OC3CCOCC3)c3c(Nc4c(Cl)ccc5c4OCO5)ncnc3c2)CC1 [saracatinib]
Procedure, shortened: as §1

sotrastaurin = compound: CN1CCN(c2nc(C3=C(c4c[nH]c5ccccc45)C(=O)NC3=O)c3ccccc3n2)CC1 [sotrastaurin]
Procedure, shortened: as §1

alvocidib = compound: CN1CC[C@H](c2c(O)cc(O)c3c(=O)cc(-c4ccccc4Cl)oc23)[C@H](O)C1 [alvocidib]
Procedure, shortened: as §1

Tubastatin A = compound: CN1CCc2c(c3ccccc3n2Cc2ccc(C(=O)NO)cc2)C1 [Tubastatin A]
Procedure, shortened: as §1

[8] = compound: CNC(=O)C1=CC=CC=C1NC2=NC(=NC=C2Cl)NC3=C(C=C(C=C3)N4CCOCC4)OC
Procedure, shortened: as §1

defactinib = compound: CNC(=O)c1ccc(Nc2ncc(C(F)(F)F)c(NCc3nccnc3N(C)S(C)(=O)=O)n2)cc1 [defactinib]
Procedure, shortened: as §1

rucaparib = compound: CNCc1ccc(-c2[nH]c3cc(F)cc4c3c2CCNC4=O)cc1 [rucaparib]
Procedure, shortened: as §1

[9] = compound: CNc1nc(-c2ccc3c(N)n[nH]c3c2)cc(N2C[C@@H](C(=O)NC3CCCCC3)CC[C@H]2C)n1
Procedure, shortened: as §1

encorafenib = compound: COC(=O)N[C@@H](C)CNc1nccc(-c2cn(C(C)C)nc2-c2cc(Cl)cc(NS(C)(=O)=O)c2F)n1 [encorafenib]
Procedure, shortened: as §1

[10] = compound: COC(=O)[C@H](CCSC)NC(=O)C1=C(C=C(C=C1)NC[C@H](CS)N)C2=CC=CC=C2
Procedure, shortened: as §1

Measured: log2 fold change

NDE1 isoform 1 (UniProt Q9NXR1)
inactive: [1] 0.075 | volasertib 0.036 | [2] -0.008 | epoxomicin 0.033 | [3] -0.053 | [4] 0.017 | [5] -0.013 | rosiglitazone 0.021 | [6] -0.031 | [7] 0.033 | saracatinib 0.085 | sotrastaurin -0.008 | alvocidib 0 | Tubastatin A 0.073 | [8] 0.045 | defactinib -0.029 | rucaparib -0.018 | [9] -0.004 | encorafenib -0.02 | [10] 0.003

NAE1 (UniProt Q13564)
inactive: [1] -0.051 | volasertib -0.074 | [2] 0.029 | epoxomicin 0.036 | [3] -0.022 | [4] -0.094 | [5] 0.02 | rosiglitazone 0.042 | [6] -0.048 | [7] -0.124 | saracatinib 0.007 | sotrastaurin -0.032 | alvocidib -0.094 | Tubastatin A 0.05 | [8] 0.008 | defactinib -0.057 | rucaparib -0.025 | [9] 0.052 | encorafenib 0.026 | [10] -0.026

NDUFS5 (UniProt O43920)
inactive: [1] 0.02 | volasertib -0.034 | [2] -0.032 | epoxomicin 0.072 | [3] -0.034 | [4] 0.059 | [5] 0 | rosiglitazone 0.015 | [6] 0.004 | [7] -0.052 | saracatinib 0.001 | sotrastaurin 0.09 | alvocidib 0.023 | Tubastatin A -0.025 | [8] 0.049 | defactinib -0.018 | rucaparib -0.02 | [9] -0.075 | encorafenib -0.013 | [10] 0.037

NDUFB3 (UniProt O43676)
inactive: [1] 0.049 | volasertib 0.057 | [2] -0.004 | epoxomicin -0.028 | [3] 0.043 | [4] 0.041 | [5] -0.016 | rosiglitazone -0.001 | [6] -0.007 | [7] 0.007 | saracatinib 0.068 | sotrastaurin 0.047 | alvocidib -0.012 | Tubastatin A -0.011 | [8] 0.024 | defactinib 0.001 | rucaparib -0.054 | [9] -0.035 | encorafenib -0.015 | [10] 0.014

NDRG2 (UniProt Q9UN36)
inactive: [1] -0.029 | volasertib -0.11 | [2] 0.024 | epoxomicin 0.064 | [3] 0.001 | [4] -0.041 | [5] 0.03 | rosiglitazone 0.026 | [6] -0.046 | [7] 0.115 | saracatinib 0.012 | sotrastaurin -0.027 | alvocidib -0.035 | Tubastatin A -0.008 | [8] -0.015 | defactinib -0.088 | rucaparib -0.093 | [9] 0.005 | encorafenib 0.013 | [10] 0.04

NDUFS6 (UniProt O75380)
inactive: [1] 0.09 | volasertib 0.182 | [2] -0.105 | epoxomicin -0.035 | [3] 0.101 | [4] 0.043 | [5] -0.046 | rosiglitazone -0.048 | [6] 0.067 | [7] -0.034 | saracatinib 0.08 | sotrastaurin 0.126 | alvocidib 0.061 | Tubastatin A -0.188 | [8] -0.05 | defactinib 0.047 | rucaparib 0.032 | [9] -0.032 | encorafenib -0.057 | [10] 0.08

NDUFA13 (UniProt Q9P0J0)
inactive: [1] -0.063 | volasertib -0.025 | [2] -0.001 | epoxomicin 0.015 | [3] 0.047 | [4] -0.01 | [5] -0.016 | rosiglitazone 0.019 | [6] -0.07 | [7] -0.093 | saracatinib 0.015 | sotrastaurin -0.024 | alvocidib -0.069 | Tubastatin A -0.014 | [8] -0.011 | defactinib 0.023 | rucaparib -0.016 | [9] 0.06 | encorafenib -0.005 | [10] 0.024

NDUFAF2 (UniProt Q8N183)
inactive: [1] -0.019 | volasertib 0.036 | [2] -0.043 | epoxomicin 0.027 | [3] -0.007 | [4] 0 | [5] 0.016 | rosiglitazone 0.002 | [6] -0.034 | [7] -0.058 | saracatinib 0.015 | sotrastaurin 0.044 | alvocidib -0.028 | Tubastatin A 0 | [8] -0.009 | defactinib -0.018 | rucaparib -0.009 | [9] -0.049 | encorafenib -0.034 | [10] 0.034

Three successive entries out of the list so far:
NDUFS6 (UniProt O75380)
inactive: [1] 0.09 | volasertib 0.182 | [2] -0.105 | epoxomicin -0.035 | [3] 0.101 | [4] 0.043 | [5] -0.046 | rosiglitazone -0.048 | [6] 0.067 | [7] -0.034 | saracatinib 0.08 | sotrastaurin 0.126 | alvocidib 0.061 | Tubastatin A -0.188 | [8] -0.05 | defactinib 0.047 | rucaparib 0.032 | [9] -0.032 | encorafenib -0.057 | [10] 0.08

NDUFA13 (UniProt Q9P0J0)
inactive: [1] -0.063 | volasertib -0.025 | [2] -0.001 | epoxomicin 0.015 | [3] 0.047 | [4] -0.01 | [5] -0.016 | rosiglitazone 0.019 | [6] -0.07 | [7] -0.093 | saracatinib 0.015 | sotrastaurin -0.024 | alvocidib -0.069 | Tubastatin A -0.014 | [8] -0.011 | defactinib 0.023 | rucaparib -0.016 | [9] 0.06 | encorafenib -0.005 | [10] 0.024

NDUFAF2 (UniProt Q8N183)
inactive: [1] -0.019 | volasertib 0.036 | [2] -0.043 | epoxomicin 0.027 | [3] -0.007 | [4] 0 | [5] 0.016 | rosiglitazone 0.002 | [6] -0.034 | [7] -0.058 | saracatinib 0.015 | sotrastaurin 0.044 | alvocidib -0.028 | Tubastatin A 0 | [8] -0.009 | defactinib -0.018 | rucaparib -0.009 | [9] -0.049 | encorafenib -0.034 | [10] 0.034

The list continues.

NAA25 (UniProt Q14CX7)
inactive: [1] -0.007 | volasertib -0.057 | [2] 0.019 | epoxomicin -0.005 | [3] -0.019 | [4] -0.112 | [5] 0.004 | rosiglitazone 0.065 | [6] -0.054 | [7] -0.043 | saracatinib -0.004 | sotrastaurin 0.028 | alvocidib -0.144 | Tubastatin A 0.039 | [8] 0.018 | defactinib -0.065 | rucaparib -0.035 | [9] 0.009 | encorafenib 0.01 | [10] -0.009

NAA16 (UniProt Q6N069)
inactive: [1] 0.056 | volasertib -0.09 | [2] 0.11 | epoxomicin -0.011 | [3] -0.007 | [4] -0.059 | [5] -0.033 | rosiglitazone -0.022 | [6] 0 | [7] 0.123 | saracatinib 0.001 | sotrastaurin 0.016 | alvocidib -0.126 | Tubastatin A 0.052 | [8] -0.036 | defactinib -0.166 | rucaparib 0.054 | [9] -0.015 | encorafenib 0.012 | [10] -0.013

NADK2 (UniProt Q4G0N4)
inactive: [1] 0.021 | volasertib 0.034 | [2] 0.01 | epoxomicin 0.032 | [3] -0.014 | [4] -0.022 | [5] 0.019 | rosiglitazone -0.011 | [6] -0.071 | [7] -0.003 | saracatinib 0.051 | sotrastaurin 0.073 | alvocidib -0.003 | Tubastatin A -0.046 | [8] -0.017 | defactinib -0.009 | rucaparib 0.023 | [9] -0.037 | encorafenib -0.006 | [10] 0.001

NCALD (UniProt P61601)
inactive: [1] -0.092 | volasertib -0.11 | [2] -0.043 | epoxomicin -0.011 | [3] -0.035 | [4] -0.086 | [5] 0.002 | rosiglitazone -0.012 | [6] -0.013 | [7] -0.042 | saracatinib 0.006 | sotrastaurin -0.018 | alvocidib 0.034 | Tubastatin A -0.027 | [8] -0.006 | defactinib 0.019 | rucaparib -0.021 | [9] -0.059 | encorafenib 0.002 | [10] 0

NCAPG2 isoform 2 (UniProt Q86XI2)
inactive: [1] -0.125 | volasertib -0.21 | [2] -0.038 | epoxomicin -0.018 | [3] -0.127 | [4] -0.218 | [5] -0.043 | rosiglitazone 0.074 | [6] 0.132 | [7] -0.145 | saracatinib -0.215 | sotrastaurin -0.152 | alvocidib 0.03 | Tubastatin A 0.004 | [8] 0.176 | defactinib 0.267 | rucaparib 0.194 | [9] -0.012 | encorafenib 0.229 | [10] -0.221

NDUFA10 (UniProt O95299)
inactive: [1] -0.126 | volasertib -0.223 | [2] 0.029 | epoxomicin 0.037 | [3] -0.023 | [4] -0.131 | [5] 0.03 | rosiglitazone 0.031 | [6] -0.074 | [7] -0.215 | saracatinib -0.04 | sotrastaurin 0.079 | alvocidib -0.063 | Tubastatin A -0.022 | [8] -0.044 | defactinib -0.052 | rucaparib -0.017 | [9] 0.062 | encorafenib 0.044 | [10] 0.009

NDUFS3 (UniProt O75489)
inactive: [1] -0.02 | volasertib -0.001 | [2] -0.01 | epoxomicin 0.066 | [3] -0.005 | [4] -0.03 | [5] 0.016 | rosiglitazone 0.01 | [6] -0.08 | [7] -0.102 | saracatinib 0.078 | sotrastaurin 0.011 | alvocidib -0.032 | Tubastatin A -0.053 | [8] -0.026 | defactinib -0.094 | rucaparib -0.043 | [9] -0.002 | encorafenib 0.017 | [10] -0.008

NAPRT (UniProt Q6XQN6)
inactive: [1] -0.01 | volasertib 0.084 | [2] -0.028 | epoxomicin 0.014 | [3] -0.053 | [4] 0.002 | [5] -0.026 | rosiglitazone 0.004 | [6] -0.037 | [7] -0.056 | saracatinib 0.033 | sotrastaurin 0.028 | alvocidib -0.015 | Tubastatin A -0.057 | [8] 0.018 | defactinib -0.013 | rucaparib -0.055 | [9] -0.059 | encorafenib -0.011 | [10] 0.027
